Measured values as given in patent JP2003262640A.
No constants are given. Whether binding was seen depends on the method and setting. Some results given as binding are weak or reduced against the parent protein; the word gives no strength.

Molecular target: T1, ラットAILIM (rat AILIM) (rat) (UniProt Q9R1T7)
T1 sequence (looked up): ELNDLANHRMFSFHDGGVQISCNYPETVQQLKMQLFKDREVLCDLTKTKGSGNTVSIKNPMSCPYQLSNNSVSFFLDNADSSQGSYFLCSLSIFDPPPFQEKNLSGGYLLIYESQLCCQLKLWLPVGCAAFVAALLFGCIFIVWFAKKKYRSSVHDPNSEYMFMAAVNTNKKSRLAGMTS
Test: cell ELISA on rat AILIM CHO cells

B1: AII289 (JMab-138) (antibody, human IgG2, kappa, V domains shown)
VH: EVQLVESGGGLVQPGGSLRLSCAASGFTFSSYDMHWVRQATGKGLEWVSAIGTAGDTYYPGSVKGRFTISRENAKNSLYLQMNSLRAGDTAVYYCVRDNRKVTHEHYYYYGMDVWGQGTTVTVSS
VL: EIVLTQSPGTLSLSPGERATLSCRASQNIRSSYLAWYQQKPGQAPGLLIYGASSRATGIPDRFSGSGSGTDFTLTISRLEPEDFAVYYCQQFGSSPMCSFGQGTKLEIKR
Question: For B1, which binding is on record?
Answer: binds

B2: AII394 (JMab-139) (antibody, human IgG2, kappa, V domains shown)
VH: EVQLVESGGGLVQPGGSLRLSCAASGFTFSSYDMHWVRQATGKGLEWVSAIGTAGDTYYPGSVKGRFTISRENAKNSLYLQMNSLRAGDTAVYYCVRDKRTVTHEHYYYYGMDVWGQGTTVTVSS
VL: EIVLTQSPGTLSLSPGERATLSCRASQSISSSSLAWYQQKPGQAPGLLIFGASSRATGIPDRFSGSGSGTDFTLTISRLEPEDFAVYYCQQFGSSPMCSFGQGTKLEIKR
Question: B2 was tested. Which binding did it give?
Answer: binds
